Binding signal data for 42 sequences are collected here from paper PMC7819943, “Rice protein-binding microarrays: a tool to detect cis-acting elements near promoter regions in rice”.

Amino acid sequences for entries named in this document (tags omitted).
UniProt Q0JBA9, entry or part of it: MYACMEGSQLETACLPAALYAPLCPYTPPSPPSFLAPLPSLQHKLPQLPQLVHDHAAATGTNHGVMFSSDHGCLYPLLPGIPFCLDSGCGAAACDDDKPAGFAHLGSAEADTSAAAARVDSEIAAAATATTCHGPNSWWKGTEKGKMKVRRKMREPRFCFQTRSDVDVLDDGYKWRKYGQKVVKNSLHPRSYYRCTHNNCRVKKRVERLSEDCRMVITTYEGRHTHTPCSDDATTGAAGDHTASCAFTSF

This is one part of the list.

The target in the test is OsWRKY34 (Oryza sativa, UniProt Q0JBA9 1-250). In words: protein-binding microarray (RPBM); PBS, 2% BSA, 51.3 ng/ul salmon testes DNA, 50 uM zinc acetate, 200 nM TF, 25 C, 1 h; high values mean tight binding. As to conditions: protein: recombinant; tags: N-terminal polyhistidine and DsRed monomer fusion (pET32a); label: CyDye5-dUTP incorporated in the synthesized complementary strand; 3' TTTTT single-stranded linker to array surface; dsDNA, one strand shown. Put shortly:
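A custom Agilent array was converted to double-stranded form by primer extension with Cy5-dUTP and blocked with 2% BSA. Protein at 200 nM in PBS with 2% BSA, salmon testes DNA and 50 µM zinc acetate was applied for 1 h at 25 °C, followed by washing. The proteins were polyhistidine–DsRed N-terminal fusions of transcription factors, expressed in E. coli BL21-CodonPlus and Ni–NTA-purified. The binding signal is per-feature fluorescence intensity (arbitrary units) from an Axon 4000B scanner.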
As to “TCTTTAGAAGTTGCTTATCATGTAGAGTGTGTGTGCGTGTCGGAGTCACCTAGTGCAG”, the binding signal is 8050 fluorescence intensity (a.u.).
For “ATAGATCTTCATTGAGTAAGTTCTGAATTCAAGGGTATTTCGGAGTCACCTAGTGCAG” the value was 8580 fluorescence intensity (a.u.).
For “GGTTACCTCGGCAGCTAGCAGTCATCACCACCACGCGAGCCGGAGTCACCTAGTGCAG” the value was 8030 fluorescence intensity (a.u.); for “AATTCGCCCAACCCTATATATTGGCCTCTAACCTCACTTCCGGAGTCACCTAGTGCAG”, 9240 fluorescence intensity (a.u.).
For “AGAATTACTGCTGCTTTATTTACTTTTCTTCCATTGGTTTCGGAGTCACCTAGTGCAG” the value was 13000 fluorescence intensity (a.u.); for “CTTCCTTTTGTGTAGATAACTTTGCATGCTTCTGGCCAACCGGAGTCACCTAGTGCAG”, 11400 fluorescence intensity (a.u.).
Turning to “ATCCCACCGCCCAGCGCCGCACCTCCTCTCCTCGTGCTCTCGGAGTCACCTAGTGCAG”, the binding signal was 9250 fluorescence intensity (a.u.).
For “ATGGGCTCTGCTCTTTTAATTGGGGTTACATGAGGAGGGACGGAGTCACCTAGTGCAG” the value was 8900 fluorescence intensity (a.u.); for “AAAGTACACACAAGTCCTTCACTCATTAGTTTCCATTTCTCGGAGTCACCTAGTGCAG”, 8090 fluorescence intensity (a.u.).
For “CACTGTAGTTATGTGGTGCACTGGTCGGTTCCGCTGACCACGGAGTCACCTAGTGCAG” the value was 10400 fluorescence intensity (a.u.).
To “CAGGCCAGCTTCATATGCCTCCATCAAAATCGATTTATTTCGGAGTCACCTAGTGCAG” belongs 8630 fluorescence intensity (a.u.); to “TTTGCTTTGTTTTTACTCTCTGATGATCTGATCGGTAGAACGGAGTCACCTAGTGCAG”, 8080 fluorescence intensity (a.u.).
Consider “CGCCGCATGCATCCTGTTCTATTCCTCGTGTGGGCCTTTACGGAGTCACCTAGTGCAG”, for which the binding signal was 9570 fluorescence intensity (a.u.).
For “CAGTTTTACATGTGGCTAATCATCCAAAGCTATAGTACTCCGGAGTCACCTAGTGCAG” the value was 9220 fluorescence intensity (a.u.); for “GTGACCATGACTTCTATGATTCTCTTCCAAGCTCTTTCACCGGAGTCACCTAGTGCAG”, 10200 fluorescence intensity (a.u.).
As to “TTCATTGGTCTGTTTGGTTCAAGTCCTGAGAAGGTGCTGGCGGAGTCACCTAGTGCAG”, the binding signal was 8730 fluorescence intensity (a.u.).
With “TGCTGTTTTGACCTCGTGGGGATTTTTATTTTCTTTTTCACGGAGTCACCTAGTGCAG”, the binding signal was 8020 fluorescence intensity (a.u.).
As to “CTTTTGGCATCCTTGATTCAATTTCCCTTCCCTTTCTTTCCGGAGTCACCTAGTGCAG”, the binding signal is 10800 fluorescence intensity (a.u.).
For “TCTCATTTTCTCTATGTCATCAGTCTCCAAATTCTTTCAACGGAGTCACCTAGTGCAG” the value was 11300 fluorescence intensity (a.u.).
As for “CCTACTCCTGCTGCTACCGCGCTCGCCGGCGACCTCCTCCCGGAGTCACCTAGTGCAG”, the binding signal is 8440 fluorescence intensity (a.u.).
For “CGTAGAAGATGTTGCTGTTGCCGCCGTTGACGAACTTGGTCGGAGTCACCTAGTGCAG” the value was 8810 fluorescence intensity (a.u.).
For “GGATGTGTATGTATTTATAGGGGTAAGTGAGAAGACTCATCGGAGTCACCTAGTGCAG” the value was 10300 fluorescence intensity (a.u.).
For “ACCTTCGTTTTGTAATATACGAGACATTTGACTTTCTTTTCGGAGTCACCTAGTGCAG” the value was 10000 fluorescence intensity (a.u.); for “ATGGCATGGTCGATCCCCACTATGTAAGTGTATATATATACGGAGTCACCTAGTGCAG”, 8870 fluorescence intensity (a.u.); for “CCTCTCTCTCTCTCTTCGCCCGCGACTCCATCCCCTCCCTCGGAGTCACCTAGTGCAG”, 8360 fluorescence intensity (a.u.).
Regarding “AGATAATTACTCACTTACCATCAATATTTTCTAGAATTTTCGGAGTCACCTAGTGCAG”, the binding signal was 9230 fluorescence intensity (a.u.).
To “ACTCCGCTTTCACATAACCCTACTCCCTCCGTCCTCATAACGGAGTCACCTAGTGCAG” belongs 8240 fluorescence intensity (a.u.).
For “TTCCAAGTTGTATTGAGAAGTACCGTTGTTTGATTCTAGTCGGAGTCACCTAGTGCAG” the value was 9870 fluorescence intensity (a.u.); for “AGACGAACAGTCAAATATGTGCTAAAAAGTCAACGGTGTCCGGAGTCACCTAGTGCAG”, 17500 fluorescence intensity (a.u.); for “GCACCGACCGCCTCCGCGACCTCCACGCCTTCGACGACACCGGAGTCACCTAGTGCAG”, 10300 fluorescence intensity (a.u.).
To “ACGCGGGGATGGATGATGGTGGTGGCGGCGAGGGGATGATCGGAGTCACCTAGTGCAG” belongs 9170 fluorescence intensity (a.u.); to “ATCGAGCCCTTCCCCACCACATCTCTCGCCGCACCGCATCCGGAGTCACCTAGTGCAG”, 8500 fluorescence intensity (a.u.).
Take “ACAGTCATGTGTATGGTCTAGTGTTGTCGTAATTAAAACCCGGAGTCACCTAGTGCAG”: the binding signal is 8650 fluorescence intensity (a.u.).
For “ATCATGCGCCCCTCGATGCAACCTTGAAAAGCCATCTCAACGGAGTCACCTAGTGCAG” the value was 8220 fluorescence intensity (a.u.); for “AACCTTTTTTAAACATGTTTGACCCGTTCGTCTTATTTAACGGAGTCACCTAGTGCAG”, 9330 fluorescence intensity (a.u.); for “ATACACACACTGTCACACTGTCTCTGCATTACTCACAGTCCGGAGTCACCTAGTGCAG”, 11900 fluorescence intensity (a.u.).
For “ACCCTCGTCGCCGCCAACCACCATCCAACCCATCCACCAACGGAGTCACCTAGTGCAG” the value was 10800 fluorescence intensity (a.u.); for “CGTGCCGCCGCCGCCGCCGCCATCCTCCGGCAACAACGGCCGGAGTCACCTAGTGCAG”, 9650 fluorescence intensity (a.u.); for “CATTGTTACACTTTTCTGTTTGTTTGTTAATGTGGATCAACGGAGTCACCTAGTGCAG”, 10300 fluorescence intensity (a.u.).
With “TATTGGGTCTACTCCTTACCTGCTACAGTTAGTTTGTCTTCGGAGTCACCTAGTGCAG”, the binding signal was 12600 fluorescence intensity (a.u.).
For “CAAGCCCTGCAGGCTGCAGATTCTGTTTTCCACTTGGCGCCGGAGTCACCTAGTGCAG” the value was 8190 fluorescence intensity (a.u.); for “TTGTTTGCACCGGTTTTGACAGTTCAGGGATCGGTTGTATCGGAGTCACCTAGTGCAG”, 8200 fluorescence intensity (a.u.).
